At least one peptide structure holds a part that was inferred or is arguable (an end, a ring closure or a residue). Ends that are not written are not given here.
Test system: muscle tissue, subcutaneous connective tissue, and dermis
Assay: Injection into skin, subcutaneous tissue and extremity skeletal muscle of normal rats, histopathology of injection foci at 24 hours
Type: in vivo
Details: injected in skin, subcutaneously and in extremity skeletal muscle, in saline, at 0.1-1 mg/mL, sacrificed at 24 hours
Source text: The individual foci of infiltration were excised, fixed in 10% formalin, embedded in paraffin, and stained and examined by standard histopathological methods.
The controls received saline alone.
Tissues were excised, fixed in 10% formalin, embedded in paraffin, and stained and examined by standard histopathological methods.

WDYRRFIFNFL [NTP peptide #14, Trp-Asp-Tyr-Arg-Arg-Phe-Ile-Phe-Asn-Phe-Leu]
effect on tissue at sites of injection: produced cell death and necrosis of tissue at the injection sites
